Measured values: paper PMC12785802
Changes are numbered by the printed parent chain. For at least one entry, the source does not settle the construct or the ends of the probe. At least one result comes from cells or an extract, where the contact may be indirect. For part of these data: No signal at the amounts used counts as a negative. For part of these data: Where a protein sequence is shown, tags need not be part of it. For part of these data: Weaker means in comparison with the reference protein, sequence or condition of that experiment. For part of these data: At least one verdict was read from the data and is not stated in words by the source.

Assays:
[1] = target: T1, POU1F1 A158P (Homo sapiens) (UniProt P28069); assay: EMSA; conditions: 20 mM HEPES-NaOH pH 7.9, 50 mM KCl, 0.1 mM EDTA, 10% glycerol, 0.5 mM DTT, 2 ug poly(dI-dC) in 20 uL, 20 min at room temperature, 5% PAGE at 4 C, protein in a lysate after overexpression, label: 32P (T4 PNK)
T1 sequence (looked up, limits assumed): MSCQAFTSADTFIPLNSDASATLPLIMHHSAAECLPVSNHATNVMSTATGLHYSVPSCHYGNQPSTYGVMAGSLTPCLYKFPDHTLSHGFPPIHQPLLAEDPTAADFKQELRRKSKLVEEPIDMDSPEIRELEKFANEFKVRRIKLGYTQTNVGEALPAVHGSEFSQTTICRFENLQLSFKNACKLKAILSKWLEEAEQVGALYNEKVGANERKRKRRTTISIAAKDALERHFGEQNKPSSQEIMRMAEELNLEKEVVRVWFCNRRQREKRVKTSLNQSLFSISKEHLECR

[2] = target: T2, POU1F1 E230K (Homo sapiens) (UniProt P28069); assay: EMSA; conditions: 20 mM HEPES-NaOH pH 7.9, 50 mM KCl, 0.1 mM EDTA, 10% glycerol, 0.5 mM DTT, 2 ug poly(dI-dC) in 20 uL, 20 min at room temperature, 5% PAGE at 4 C, protein in a lysate after overexpression, label: 32P (T4 PNK)
T2 sequence (looked up, limits assumed): T1 sequence (looked up, limits assumed) with P158A, E230K

[3] = target: T3, POU1F1 K216E (Homo sapiens) (UniProt P28069); assay: EMSA; conditions: 20 mM HEPES-NaOH pH 7.9, 50 mM KCl, 0.1 mM EDTA, 10% glycerol, 0.5 mM DTT, 2 ug poly(dI-dC) in 20 uL, 20 min at room temperature, 5% PAGE at 4 C, protein in a lysate after overexpression, label: 32P (T4 PNK)
T3 sequence (looked up, limits assumed): T1 sequence (looked up, limits assumed) with P158A, K216E

[4] = target: T4, POU1F1 P76L (Homo sapiens) (UniProt P28069); assay: EMSA; conditions: 20 mM HEPES-NaOH pH 7.9, 50 mM KCl, 0.1 mM EDTA, 10% glycerol, 0.5 mM DTT, 2 ug poly(dI-dC) in 20 uL, 20 min at room temperature, 5% PAGE at 4 C, protein in a lysate after overexpression, label: 32P (T4 PNK)
T4 sequence (looked up, limits assumed): T1 sequence (looked up, limits assumed) with P76L, P158A

[5] = target: T5, POU1F1 R172Q (Homo sapiens) (UniProt P28069); assay: EMSA; conditions: text: reduced, 20 mM HEPES-NaOH pH 7.9, 50 mM KCl, 0.1 mM EDTA, 10% glycerol, 0.5 mM DTT, 2 ug poly(dI-dC) in 20 uL, 20 min at room temperature, 5% PAGE at 4 C, protein in a lysate after overexpression, label: 32P (T4 PNK)
T5 sequence (looked up, limits assumed): T1 sequence (looked up, limits assumed) with P158A, R172Q

[6] = target: T6, POU1F1 R271W (Homo sapiens) (UniProt P28069); assay: EMSA; conditions: 20 mM HEPES-NaOH pH 7.9, 50 mM KCl, 0.1 mM EDTA, 10% glycerol, 0.5 mM DTT, 2 ug poly(dI-dC) in 20 uL, 20 min at room temperature, 5% PAGE at 4 C, protein in a lysate after overexpression, label: 32P (T4 PNK)
T6 sequence (looked up, limits assumed): T1 sequence (looked up, limits assumed) with P158A, R271W

[7] = target: T7, POU1F1 wild type (PIT1) (Homo sapiens) (UniProt P28069); assay: EMSA with supershift; conditions: 20 mM HEPES-NaOH pH 7.9, 50 mM KCl, 0.1 mM EDTA, 10% glycerol, 0.5 mM DTT, 2 ug poly(dI-dC) in 20 uL, 20 min at room temperature, 5% PAGE at 4 C, protein in a lysate after overexpression, label: 32P (T4 PNK)
T7 sequence (looked up, limits assumed): T1 sequence (looked up, limits assumed) with P158A

GATA2 (Mus musculus) = target: T8, GATA2 (Mus musculus) (UniProt O09100); assay: EMSA; conditions: GATA2 monomer and dimer bands; 20 mM HEPES-NaOH pH 7.9, 50 mM KCl, 0.1 mM EDTA, 10% glycerol, 0.5 mM DTT, 2 ug poly(dI-dC) in 20 uL; 20 min at room temperature; 5% PAGE at 4 C; protein in a lysate after overexpression; label: 32P (T4 PNK)
T8 sequence (looked up, limits assumed): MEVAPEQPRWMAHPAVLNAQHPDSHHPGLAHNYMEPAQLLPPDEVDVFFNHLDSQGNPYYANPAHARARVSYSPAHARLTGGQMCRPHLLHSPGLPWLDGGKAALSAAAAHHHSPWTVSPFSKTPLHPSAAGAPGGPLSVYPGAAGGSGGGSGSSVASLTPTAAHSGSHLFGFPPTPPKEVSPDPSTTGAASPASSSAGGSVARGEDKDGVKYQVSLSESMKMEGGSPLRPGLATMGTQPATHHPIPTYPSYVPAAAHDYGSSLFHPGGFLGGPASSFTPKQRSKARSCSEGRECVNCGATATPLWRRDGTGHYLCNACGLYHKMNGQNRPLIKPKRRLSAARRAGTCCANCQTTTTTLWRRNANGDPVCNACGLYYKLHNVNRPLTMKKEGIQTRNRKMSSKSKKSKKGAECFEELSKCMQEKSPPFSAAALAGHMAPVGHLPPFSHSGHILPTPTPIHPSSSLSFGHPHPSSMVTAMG

POU1F1 E230K + GATA2 = assay: EMSA; conditions: POU1F1-GATA2 complex; 20 mM HEPES-NaOH pH 7.9, 50 mM KCl, 0.1 mM EDTA, 10% glycerol, 0.5 mM DTT, 2 ug poly(dI-dC) in 20 uL; 20 min at room temperature; 5% PAGE at 4 C; protein in a lysate after overexpression; label: 32P (T4 PNK)
POU1F1 K216E + GATA2 = assay: EMSA; conditions: POU1F1-GATA2 complex not observed; 20 mM HEPES-NaOH pH 7.9, 50 mM KCl, 0.1 mM EDTA, 10% glycerol, 0.5 mM DTT, 2 ug poly(dI-dC) in 20 uL; 20 min at room temperature; 5% PAGE at 4 C; protein in a lysate after overexpression; label: 32P (T4 PNK)
POU1F1 R172Q + GATA2 = assay: EMSA; conditions: POU1F1-GATA2 complex, text: binding reduced; 20 mM HEPES-NaOH pH 7.9, 50 mM KCl, 0.1 mM EDTA, 10% glycerol, 0.5 mM DTT, 2 ug poly(dI-dC) in 20 uL; 20 min at room temperature; 5% PAGE at 4 C; protein in a lysate after overexpression; label: 32P (T4 PNK)
[8] = system: POU1F1 wild type (PIT1) + GATA2; assay: EMSA with supershift; conditions: POU1F1-GATA2 complex, faint band; 20 mM HEPES-NaOH pH 7.9, 50 mM KCl, 0.1 mM EDTA, 10% glycerol, 0.5 mM DTT, 2 ug poly(dI-dC) in 20 uL; 20 min at room temperature; 5% PAGE at 4 C; protein in a lysate after overexpression; label: 32P (T4 PNK)
[9] = results: attenuated, discussion: fails to bind
[10] = table cell ambiguous (- or +/-)
[11] = results: reduced, discussion: fails to bind

Row | Sequence | binding result [1] | binding result [2] | binding result [3, 9] | binding result [4] | binding result [5, 10] | binding result [6, 11] | binding result ([7]; monomer) | binding result (GATA2 (Mus musculus)) | binding result (POU1F1 E230K + GATA2) | binding result (POU1F1 K216E + GATA2) | binding result (POU1F1 R172Q + GATA2) | binding result ([7]; monomer and dimer) | binding result [8] | binding result ([1]; monomer and dimer reduced) | binding result ([2]; monomer-dominant) | binding result ([3]; monomer and dimer not reduced) | binding result ([4]; monomer and dimer reduced) | binding result ([5]; table: -) | binding result ([6]; increased monomer, not dimer)
1 | AGTATGAATTTTCAATAGATGCTTTTCAGATAAGAAA (double strand) [hTSHβ-PG] | binds more weakly | binds more weakly | no binding | binds more weakly | binds more weakly | no binding | binds | – | – | – | – | – | – | – | – | – | – | – | –
2 | AGTATGAATTTTCAATAGATGCTTTTCAGATAAGAAAGCAGTGAATCAAATGCAATTGTATAAACAAGAAGATC (double strand) [hTSHβ-PGSR] | – | – | – | – | – | – | – | binds | no binding | no binding | no binding | binds | binds | – | – | – | – | – | –
3 | AGTGAATCAAATGCAATTGTATAAACAAGAAGATC (double strand) [hTSHβ-SR] | binds more weakly | binds more weakly | no binding | binds more weakly | binds more weakly | no binding | binds | – | – | – | – | – | – | – | – | – | – | – | –
4 | TGCCTGATTATATATATATTCATGAAGGTGTCG (double strand) [rPRL-1P] | – | – | – | – | – | – | – | – | – | – | – | binds | – | binds more weakly | binds more weakly | binds | binds more weakly | binds more weakly | binds
